From a melanoma drug combination screen (doi:10.1371/journal.pone.0140310); values rounded.

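The test systems are human melanoma cell lines, treated with two drugs together for 72 h and then stained and imaged. The read-out is the fraction of cleaved-PARP-positive nuclei, in % of that fraction in the DMSO control; 200 means twice the control level of this apoptosis marker. Every drug was used at one fixed concentration, the higher of two screened. No replicate spread is given; individual values may be noisy. The marker varies much from line to line, for technical or biological reasons.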
An unselected part of the screen is shown.

Drugs:
fludarabine, 1 µM: Nc1nc(F)nc2c1ncn2[C@@H]1O[C@H](CO)[C@@H](O)[C@@H]1O
NVP-BEZ235, 0.02 µM: Cn1c(=O)n(-c2ccc(C(C)(C)C#N)cc2)c2c3cc(-c4cnc5ccccc5c4)ccc3ncc21
YM155, 0.002 µM: COCC[n+]1c2c(n(Cc3cnccn3)c1C)C(=O)c1ccccc1C2=O
decitabine, 0.5 µM: Nc1ncn([C@H]2C[C@H](O)[C@@H](CO)O2)c(=O)n1
perifosine, 2 µM: CCCCCCCCCCCCCCCCCCOP(=O)([O-])OC1CC[N+](C)(C)CC1
XAV939, 10 µM: Oc1nc(-c2ccc(C(F)(F)F)cc2)nc2c1CSCC2
IMD-0354, 0.08 µM: O=C(Nc1cc(C(F)(F)F)cc(C(F)(F)F)c1)c1cc(Cl)ccc1O

Drugs | WM3526
perifosine + YM155 | 489
decitabine + XAV939 | 110
IMD-0354 + NVP-BEZ235 | 131
fludarabine + NVP-BEZ235 | 4990
decitabine + NVP-BEZ235 | 202
perifosine + XAV939 | 73.6
perifosine + fludarabine | 2850
fludarabine + IMD-0354 | 1640
fludarabine + XAV939 | 1180
fludarabine + YM155 | 4730
YM155 + decitabine | 1260
NVP-BEZ235 + XAV939 | 48.6
IMD-0354 + XAV939 | 76.4
decitabine + perifosine | 123
decitabine + IMD-0354 | 47.0
NVP-BEZ235 + perifosine | 116
YM155 + XAV939 | 684
decitabine + fludarabine | 2710
perifosine + IMD-0354 | 180
YM155 + IMD-0354 | 462
YM155 + NVP-BEZ235 | 1300

The last 2 entries again:

| Drugs | WM3526 |
|---|---|
| YM155 + IMD-0354 | 462 |
| YM155 + NVP-BEZ235 | 1300 |